In publication doi:10.1101/2025.11.18.688769 one finds binding data, which are given here for one substance.

Protein sequences, listed by entry. Tags and fused reporters are not part of them.
UniProt Q61188: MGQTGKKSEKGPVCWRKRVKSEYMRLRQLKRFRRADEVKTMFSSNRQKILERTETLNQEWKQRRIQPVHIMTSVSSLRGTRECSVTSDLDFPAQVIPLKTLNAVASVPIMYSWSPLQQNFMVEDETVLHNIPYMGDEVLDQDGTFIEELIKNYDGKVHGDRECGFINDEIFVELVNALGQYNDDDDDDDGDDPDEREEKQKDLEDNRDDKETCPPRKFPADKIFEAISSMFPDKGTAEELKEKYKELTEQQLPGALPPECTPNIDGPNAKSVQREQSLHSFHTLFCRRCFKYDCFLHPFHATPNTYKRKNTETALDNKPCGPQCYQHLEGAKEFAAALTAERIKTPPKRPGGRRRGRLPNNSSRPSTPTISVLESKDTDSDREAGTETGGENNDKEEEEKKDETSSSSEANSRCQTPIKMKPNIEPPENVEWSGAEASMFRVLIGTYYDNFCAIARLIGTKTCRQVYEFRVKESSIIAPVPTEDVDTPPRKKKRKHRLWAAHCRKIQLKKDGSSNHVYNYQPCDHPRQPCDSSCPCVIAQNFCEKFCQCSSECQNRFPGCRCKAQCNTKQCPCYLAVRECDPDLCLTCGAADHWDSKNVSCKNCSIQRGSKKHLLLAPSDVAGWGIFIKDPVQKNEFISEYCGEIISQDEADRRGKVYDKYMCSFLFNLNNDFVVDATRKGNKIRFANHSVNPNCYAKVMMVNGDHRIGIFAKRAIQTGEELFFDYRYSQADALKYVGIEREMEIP

The target of the test is T1, ERAS (embryonic Ras) (mouse) (UniProt Q7TN89).
T1 sequence: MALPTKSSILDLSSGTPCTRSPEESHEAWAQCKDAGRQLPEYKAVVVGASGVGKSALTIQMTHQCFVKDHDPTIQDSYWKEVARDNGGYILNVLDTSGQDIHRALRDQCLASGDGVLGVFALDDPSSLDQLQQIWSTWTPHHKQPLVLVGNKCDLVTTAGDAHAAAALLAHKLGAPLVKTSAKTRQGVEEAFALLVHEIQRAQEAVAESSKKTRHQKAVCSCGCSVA
Nature of the test: co-IP.

These are yes or no findings as the source states them, for the method shown. Binding seen in cells or lysates may run through a third protein. Some results given as binding are weak or reduced against the parent protein; the word gives no strength.

With EZH2 (from UniProt Q61188 1-746), the binding result is on record as “binds”.
